Source: article PMC6426930
These are yes or no findings as the source states them, for the method shown. For some of these results: In cells and extracts the contact can be indirect. Some results given as binding are weak or reduced against the parent protein; the word gives no strength.

Protein sequences, listed by entry. Tags and fused reporters are not part of them. Lines headed by an entry give the natural chain unless they say otherwise; changes in a name come on top.
UniProt P19447: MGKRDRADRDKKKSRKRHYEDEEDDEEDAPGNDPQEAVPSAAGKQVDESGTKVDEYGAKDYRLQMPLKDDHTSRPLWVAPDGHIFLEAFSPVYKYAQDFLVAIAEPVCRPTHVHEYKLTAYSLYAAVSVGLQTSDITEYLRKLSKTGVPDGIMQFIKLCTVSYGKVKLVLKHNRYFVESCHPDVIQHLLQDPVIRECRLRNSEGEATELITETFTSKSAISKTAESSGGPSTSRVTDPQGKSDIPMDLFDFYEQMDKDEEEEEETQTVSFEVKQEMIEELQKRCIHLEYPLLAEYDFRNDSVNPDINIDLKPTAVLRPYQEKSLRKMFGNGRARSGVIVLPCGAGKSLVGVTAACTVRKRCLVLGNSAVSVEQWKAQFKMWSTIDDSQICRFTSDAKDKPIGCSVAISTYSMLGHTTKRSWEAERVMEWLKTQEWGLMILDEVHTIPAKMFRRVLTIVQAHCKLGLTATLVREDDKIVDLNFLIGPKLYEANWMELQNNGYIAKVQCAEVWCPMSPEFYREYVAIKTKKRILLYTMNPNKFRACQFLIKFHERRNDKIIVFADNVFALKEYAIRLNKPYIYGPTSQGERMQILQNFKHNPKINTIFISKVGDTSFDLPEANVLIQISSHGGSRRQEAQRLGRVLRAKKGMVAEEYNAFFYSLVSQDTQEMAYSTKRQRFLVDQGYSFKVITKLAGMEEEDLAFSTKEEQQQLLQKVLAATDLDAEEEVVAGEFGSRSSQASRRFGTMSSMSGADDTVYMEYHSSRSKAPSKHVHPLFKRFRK
UniProt Q92830: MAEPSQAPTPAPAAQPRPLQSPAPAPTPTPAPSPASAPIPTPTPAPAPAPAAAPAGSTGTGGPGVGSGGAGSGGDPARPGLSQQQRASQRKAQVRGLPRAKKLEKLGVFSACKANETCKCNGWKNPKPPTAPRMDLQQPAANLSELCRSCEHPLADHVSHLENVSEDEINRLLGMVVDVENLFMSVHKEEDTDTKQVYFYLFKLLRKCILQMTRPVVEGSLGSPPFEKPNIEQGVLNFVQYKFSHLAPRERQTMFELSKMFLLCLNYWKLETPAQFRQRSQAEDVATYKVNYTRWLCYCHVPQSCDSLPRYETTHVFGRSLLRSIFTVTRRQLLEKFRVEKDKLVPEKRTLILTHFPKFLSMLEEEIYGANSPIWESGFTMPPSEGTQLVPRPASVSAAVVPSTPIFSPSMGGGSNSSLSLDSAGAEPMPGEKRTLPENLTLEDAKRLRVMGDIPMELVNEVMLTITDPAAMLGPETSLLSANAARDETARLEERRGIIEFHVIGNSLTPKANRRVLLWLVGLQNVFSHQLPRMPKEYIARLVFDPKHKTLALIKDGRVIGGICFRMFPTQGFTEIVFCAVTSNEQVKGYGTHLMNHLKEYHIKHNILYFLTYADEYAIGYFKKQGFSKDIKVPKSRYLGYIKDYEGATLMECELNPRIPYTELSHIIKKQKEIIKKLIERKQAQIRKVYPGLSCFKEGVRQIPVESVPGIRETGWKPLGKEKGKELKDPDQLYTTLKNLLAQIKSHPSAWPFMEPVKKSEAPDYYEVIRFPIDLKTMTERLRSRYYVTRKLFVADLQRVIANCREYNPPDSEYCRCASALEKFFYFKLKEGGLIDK
UniProt Q92831: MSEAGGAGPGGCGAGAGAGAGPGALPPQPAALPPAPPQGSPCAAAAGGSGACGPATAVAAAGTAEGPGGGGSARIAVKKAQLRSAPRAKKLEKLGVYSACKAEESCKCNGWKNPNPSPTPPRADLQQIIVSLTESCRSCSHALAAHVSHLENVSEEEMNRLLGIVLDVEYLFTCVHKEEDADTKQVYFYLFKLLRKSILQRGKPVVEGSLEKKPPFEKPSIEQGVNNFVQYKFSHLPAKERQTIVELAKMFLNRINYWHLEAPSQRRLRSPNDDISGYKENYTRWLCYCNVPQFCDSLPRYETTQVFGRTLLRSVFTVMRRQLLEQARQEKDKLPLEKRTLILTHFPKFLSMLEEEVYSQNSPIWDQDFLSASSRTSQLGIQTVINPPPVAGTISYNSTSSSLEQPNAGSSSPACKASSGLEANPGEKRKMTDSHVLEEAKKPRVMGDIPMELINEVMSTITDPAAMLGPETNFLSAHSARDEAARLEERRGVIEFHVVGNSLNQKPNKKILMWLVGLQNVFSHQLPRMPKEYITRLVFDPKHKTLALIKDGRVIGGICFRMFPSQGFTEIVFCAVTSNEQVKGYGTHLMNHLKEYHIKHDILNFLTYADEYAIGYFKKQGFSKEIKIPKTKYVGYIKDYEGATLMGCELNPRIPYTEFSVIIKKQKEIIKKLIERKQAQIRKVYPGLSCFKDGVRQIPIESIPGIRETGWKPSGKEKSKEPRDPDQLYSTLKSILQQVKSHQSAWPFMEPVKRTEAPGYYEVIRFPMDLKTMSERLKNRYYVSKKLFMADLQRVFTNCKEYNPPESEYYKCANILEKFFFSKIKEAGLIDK
UniProt P32780: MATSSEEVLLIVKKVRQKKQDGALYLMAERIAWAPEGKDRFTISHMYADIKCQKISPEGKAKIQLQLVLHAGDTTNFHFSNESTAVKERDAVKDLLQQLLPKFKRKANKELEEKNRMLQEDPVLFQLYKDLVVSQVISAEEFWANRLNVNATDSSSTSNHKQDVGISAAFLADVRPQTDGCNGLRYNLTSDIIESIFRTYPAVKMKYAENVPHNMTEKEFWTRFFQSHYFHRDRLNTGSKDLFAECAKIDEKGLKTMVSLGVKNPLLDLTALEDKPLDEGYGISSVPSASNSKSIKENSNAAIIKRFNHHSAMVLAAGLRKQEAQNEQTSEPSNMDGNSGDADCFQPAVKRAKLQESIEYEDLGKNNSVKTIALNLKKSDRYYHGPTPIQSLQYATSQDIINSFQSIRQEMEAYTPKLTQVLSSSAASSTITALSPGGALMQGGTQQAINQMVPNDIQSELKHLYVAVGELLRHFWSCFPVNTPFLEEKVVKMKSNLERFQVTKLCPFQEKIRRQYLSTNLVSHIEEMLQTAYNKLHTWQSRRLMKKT
UniProt O94864: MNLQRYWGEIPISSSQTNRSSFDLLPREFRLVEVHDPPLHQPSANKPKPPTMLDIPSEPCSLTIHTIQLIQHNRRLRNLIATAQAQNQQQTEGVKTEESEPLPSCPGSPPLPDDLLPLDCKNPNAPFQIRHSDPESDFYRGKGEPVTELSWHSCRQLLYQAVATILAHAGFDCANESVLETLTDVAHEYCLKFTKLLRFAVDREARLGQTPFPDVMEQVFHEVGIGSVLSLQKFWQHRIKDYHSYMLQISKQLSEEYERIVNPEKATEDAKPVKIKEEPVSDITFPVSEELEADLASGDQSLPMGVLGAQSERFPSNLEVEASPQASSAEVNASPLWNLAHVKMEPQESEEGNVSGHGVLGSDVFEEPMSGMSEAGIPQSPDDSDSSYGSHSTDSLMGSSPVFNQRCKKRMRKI

Tests used:
[1] = target: XPB fused C-terminally to GFP, expressed from the endogenous XPB locus (U2OS^XPB::GFP) (human (endogenous in U2OS)) (UniProt P19447); assay: co-IP; GFP-trap immunoprecipitation from CRISPR/Cas9 engineered U2OS^XPB::GFP cells; immunoblot (Supplementary Fig. 3b)
[2] = target: GFP-tagged XPB^WT (wild-type XPB stably expressed in XP-B/CS^F99S + XPB^WT cells) (human) (UniProt P19447); assay: co-IP; GFP-Trap immunoprecipitation of GFP-tagged XPB^WT from nuclear extracts of stably transfected XP-B/CS^F99S + XPB^WT cells, washed with 200 mM salt; immunoblot
[3] = target: Recombinant FLAG tagged KAT2A (rKAT2A) (human) (UniProt Q92830); assay: pull-down; purified recombinant core TFIIH incubated with purified Flag-KAT2A (400 ng); precipitated with polyclonal rabbit anti-KAT2A antibody, unspecific IgG as control; immunoblot for XPB, p52 and KAT2A; both purified
[4] = target: Recombinant wild-type XPB (rXPB^WT) (human) (UniProt P19447); assay: pull-down; XPB held on anti-XPB covered beads, washed three times, then incubated 1 h at 4 °C with purified Flag-KAT2A in lysis buffer (20 mM Tris-HCl pH 7.5, 150 mM KCl, 20% glycerol, 0.1% NP40); washed with RIPA buffer; immunoblot; both purified
[5] = target: Recombinant XPB with the XP-B/CS mutation F99S (rXPB^F99S) (human) (UniProt P19447); assay: as above
[6] = target: XPB fused C-terminally to GFP, expressed from the endogenous XPB locus (U2OS^XPB::GFP) (human (endogenous in U2OS)) (UniProt P19447); assay: co-IP

Q: Which binding [1] does the source give for “KAT2A (GCN5), endogenous (from UniProt Q92830 1-837)” here?
A: binds

Q: And the binding [2]?
A: binds

Q: Which binding [2] does the source give for “KAT2B (PCAF), endogenous (from UniProt Q92831 1-832)” here?
A: no binding

Q: “Purified recombinant wild-type core TFIIH (cIIH-XPB^WT) (from UniProt P19447 1-782; P32780 1-548; Q92759 1-462; Q13888 1-395; Q13889 1-308) (complex)” was tested. Which binding [3] did it give?
A: binds

Q: Which results are given for “Recombinant FLAG tagged KAT2A (rKAT2A) (from UniProt Q92830 1-837) (enzyme)”?
A: binding [4]: binds; binding [5]: binds

Q: How did the binding [1] turn out when “SUPT7L (a subunit of hSAGA), endogenous (from UniProt O94864 1-414)” was run?
A: binds

Q: What about the binding [2] of the same molecule?
A: binds

Q: For “p62 subunit of TFIIH, endogenous (from UniProt P32780 1-548)”, which binding [2] is on record?
A: binds

B1: ZZZ3 (hATAC), endogenous (protein, UniProt Q8IYH5 1-903)
chain: MAASRSTRVTRSTVGLNGLDESFCGRTLRNRSIAHPEEISSNSQVRSRSPKKRPEPVPIQKGNNNGRTTDLKQQSTRESWVSPRKRGLSSSEKDNIERQAIENCERRQTEPVSPVLKRIKRCLRSEAPNSSEEDSPIKSDKESVEQRSTVVDNDADFQGTKRACRCLILDDCEKREIKKVNVSEEGPLNSAVVEEITGYLAVNGVDDSDSAVINCDDCQPDGNTKQNSIGSYVLQEKSVAENGDTDTQTSMFLDSRKEDSYIDHKVPCTDSQVQVKLEDHKIVTACLPVEHVNQLTTEPATGPFSETQSSLRDSEEEVDVVGDSSASKEQCKENTNNELDTSLESMPASGEPEPSPVLDCVSAQMMSLSEPQEHRYTLRTSPRRAAPTRGSPTKNSSPYRENGQFEENNLSPNETNATVSDNVSQSPTNPGEISQNEKGICCDSQNNGSEGVSKPPSEARLNIGHLPSAKESASQHITEEEDDDPDVYYFESDHVALKHNKDYQRLLQTIAVLEAQRSQAVQDLESLGRHQREALKNPIGFVEKLQKKADIGLPYPQRVVQLPEIVWDQYTHSLGNFEREFKNRKRHTRRVKLVFDKVGLPARPKSPLDPKKDGESLSYSMLPLSDGPEGSSSRPQMIRGRLCDDTKPETFNQLWTVEEQKKLEQLLIKYPPEEVESRRWQKIADELGNRTAKQVASRVQKYFIKLTKAGIPVPGRTPNLYIYSKKSSTSRRQHPLNKHLFKPSTFMTSHEPPVYMDEDDDRSCFHSHMNTAVEDASDDESIPIMYRNLPEYKELLQFKKLKKQKLQQMQAESGFVQHVGFKCDNCGIEPIQGVRWHCQDCPPEMSLDFCDSCSDCLHETDIHKEDHQLEPIYRSETFLDRDYCVSQGTSYNYLDPNYFPANR
Q: How did the binding [6] turn out when B1 was run?
A: binds
